# According to PubChem BioAssay AID624297 (National Center for Advancing Translational Sciences (NCATS), 2012):
# Out of some 340,000 compounds screened, about 6,200 (1.8%) were called active. Inconclusive means that the source gave no clear call. Such entries were picked first, then a sample of the others. The call rests on the fitted dose curve; in most records, active means well fitted activation curve with a large enough effect; inconclusive means small, poorly fitted or top-dose-only effect; inactive means no such curve, though single readings can be large or run the other way. Where the call is inconclusive, the potency comes from a doubtful curve fit.
# Assay: A quantitative high throughput screen for small molecules that induce DNA re-replication in SW480 colon adenocarcinoma cells. Further: nearly all actives have a fitted effect of over 55% in size. On re-replication activation: % of control where 0% means no effect.
# Conditions: Hoechst DNA content imaging, 48 h; re-replication activation: at 46.1 µM (top of the series) unless noted
# Summary of the method: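 Image-based DNA-content assay: after two days of treatment, nuclei were labelled with the DNA dye Hoechst and imaged, and hits were compounds raising the count of nuclei showing high fluorescence intensity.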
# Potency means the concentration at half of the fitted maximal effect.
Compound,Potency,re-replication activation
CCCNC(=S)NNC(=O)c1cccs1,"inconclusive: 0.0041 µM [activator, partial curve, poor fit]",
COc1ccc(C)cc1NC(=O)CSc1nnc2ccc(-c3ccccn3)nn12,"inconclusive: 6.51 µM [activator, single point]",
CC1(C)CC(=O)C2=C(C1)N(CCN1CCOCC1)C1=C(C(=O)CC(C)(C)C1)C2c1ccc(Cl)cc1,"inconclusive: 29.1 µM [activator, single point]",
Cc1ccc(C2CCN(C(=S)NC3CCCCC3)C2)cc1 (stereo not given),"inconclusive: 29.1 µM [activator, partial curve, poor fit]",
CN(C)CCNC(=O)COc1cccc2c1OC(C)(C)C2,inactive,
Cc1cc(C)n(-c2nc(SCCN(C)C)c3c4c(sc3n2)COC(C)(C)C4)n1,"inconclusive: 31.6 µM [activator, single point]",
Cc1noc2ncnc(Sc3ccccc3Cl)c12,"inconclusive: 29.1 µM [activator, single point]",
O=C(NCc1ccc(Cl)cc1)C1CCN(C(=O)c2ccc(Cl)cc2)CC1,"inconclusive: 29.1 µM [activator, single point]",
Cn1cc([N+](=O)[O-])c(C(=O)Nc2ccc(Br)cn2)n1,"inconclusive: 20.6 µM [activator, single point]",
Cc1ccc(NC(=O)CSC2=C(C#N)C(c3ccco3)C3=C(CC(C)(C)CC3=O)N2)cc1 (stereo not given),"inconclusive: 20.6 µM [activator, partial curve, poor fit]",
Cc1ccccc1SCC(=O)Nc1cc(C(F)(F)F)ccc1N1CCOCC1,"inconclusive: 20.6 µM [activator, partial curve, poor fit]",
COc1ccc2cc(CN(CC3CCCO3)C(=O)Nc3ccccc3OC)c(=O)[nH]c2c1 (stereo not given),active: 14.6 µM,
Cc1cccc(NC(=O)NC2(C(=O)NCc3ccco3)CCCCC2)c1,inactive,
COC(=O)c1cccc(NC(=O)CSCc2ccccc2)c1,"inconclusive: 20.6 µM [activator, partial curve, poor fit]",
Cc1cccc(Nc2nc(N3CCCC3)nc(N3CCCC3)n2)c1,"inconclusive: 29.1 µM [activator, single point]",
CC(C)(C)n1nnnc1C(c1ccc(F)cc1)N(Cc1ccc(F)cc1)Cc1ccco1 (stereo not given),inactive,
COc1cccc(NC(=O)Nc2cccs2)c1,inactive,
CCOC(=O)N1CCC(N2CCCC(C(=O)c3ccc4cc(OC)ccc4c3)C2)CC1 (stereo not given),"inconclusive: 23.1 µM [activator, single point]",
CCn1c(O)c(C2=c3ccccc3=NC2=O)c2cc(Br)ccc21,"inconclusive: 23.1 µM [activator, single point]",
C=CCn1c(=N)c(C#N)cc2c(=O)n3ccccc3nc21,"inconclusive: 20.6 µM [activator, single point]",
O=C(COC(=O)/C=C/c1cccc(Br)c1)NC1CCCC1,"inconclusive: 0.013 µM [activator, full curve, poor fit]",
O=C1CSC(c2ccccn2)N1Cc1cn2ccccc2n1 (stereo not given),"inconclusive: 29.1 µM [activator, single point]",

Compound,Potency,re-replication activation
Cc1cc(Nc2ccccc2)n(-c2ccc(Br)cc2)n1,"inconclusive: 29.1 µM [activator, single point]",
COc1ccc(/C=C2\SC(=S)N(CC(=O)OCC(=O)Nc3ccc(C)cc3Cl)C2=O)cc1,,inactive: 20.3% [at 1.84 µM]
COc1cccc(NC(=O)CN2C(=O)CSc3ccc(S(=O)(=O)N4CCC(C)CC4)cc32)c1,"inconclusive: 18.4 µM [activator, partial curve, poor fit]",
COc1ccc(C23CC4CC(CC(C4)C2)C3)cc1C(=O)NCCN(C)C,"inconclusive: 32.6 µM [activator, partial curve, poor fit]",
Oc1ccc(Nc2nc(Cl)nc(NCc3ccco3)n2)cc1,"inconclusive: 1.64 µM [activator, full curve, poor fit]",
Cc1ccc(C2=[N+]([O-])C3(CCCCC/C3=N\O)N(O)C2(C)C)o1 (stereo not given),"inconclusive: 20.6 µM [activator, partial curve, poor fit]",
O=C(Cc1c[nH]c2ccccc12)N/N=C/c1ccccc1O,"inconclusive: 29.1 µM [activator, single point]",
CC(C)c1ccc(C2C3=C(CC(C)(C)CC3=O)NC3=C2C(=O)c2ccccc23)cc1 (stereo not given),"inconclusive: 20.6 µM [activator, single point]",
Cc1ccc(S(=O)(=O)N(CC(=O)NCCC2=CCCCC2)Cc2ccccc2F)cc1,"inconclusive: 20.6 µM [activator, partial curve, poor fit]",
COc1cc(/C=N/NC(N)=S)ccc1OCc1ccc(C)cc1,"inconclusive: 29.1 µM [activator, single point]",
Cc1sc2ncn(CC(=O)NCc3ccccc3)c(=O)c2c1C,"inconclusive: 29.1 µM [activator, single point]",
Cc1ccc(N(CCO)C(=S)Nc2ccccc2)cc1,"inconclusive: 29.1 µM [activator, single point]",
CCN(CC)CCC(=O)N1C/C(=C/c2ccccc2)C(=O)/C(=C\c2ccccc2)C1,"inconclusive: 0.731 µM [activator, partial curve, poor fit]",
CC1CCN(C(=S)c2cn(Cc3cccc(F)c3)c3ccccc23)CC1,"inconclusive: 20.6 µM [activator, single point]",
COc1ccccc1Nc1nc(-c2ccc3c(c2)NC(=O)CO3)cs1,"inconclusive: 8.2 µM [activator, partial curve, poor fit]",
COc1ccc(OC)c(C(=O)COC(=O)COc2ccccc2)c1,"inconclusive: 18.4 µM [activator, single point]",
Cc1ccc(CNC(=O)c2ccccc2-n2cnnn2)cc1,"inconclusive: 1.84 µM [activator, partial curve, poor fit]",
Cc1c(NC(=O)C(=O)/C=C(\O)c2ccc(Cl)cc2)c(=O)n(-c2ccccc2)n1C,inactive,
N#CC(C#N)=C1SC(=Nc2ccccc2)C(=Nc2ccccc2)N1c1ccccc1,"inconclusive: 29.1 µM [activator, single point]",
CC(C)CN1C(=O)C(=O)N(CC(=O)N(C)CC(=O)Nc2ccc(F)cc2)C1=O,inactive,
O=C(NC(c1ccccc1)c1c(O)ccc2ccccc12)c1ccccc1Cl (stereo not given),"inconclusive: 29.1 µM [activator, single point]",
CCN(CC)S(=O)(=O)c1ccc(N2CCOCC2)c(NC(=O)CN2C(=O)NC(C)(c3ccccc3)C2=O)c1 (stereo not given),"inconclusive: 0.82 µM [activator, full curve, poor fit]",

# Random excerpt: two compounds from above.
Compound,Potency,re-replication activation
CC1(C)CC(=O)C2=C(C1)N(CCN1CCOCC1)C1=C(C(=O)CC(C)(C)C1)C2c1ccc(Cl)cc1,"inconclusive: 29.1 µM [activator, single point]",
COC(=O)c1cccc(NC(=O)CSCc2ccccc2)c1,"inconclusive: 20.6 µM [activator, partial curve, poor fit]",

# No new results follow: two of the compounds above.
Compound,Potency,re-replication activation
COc1cccc(NC(=O)CN2C(=O)CSc3ccc(S(=O)(=O)N4CCC(C)CC4)cc32)c1,"inconclusive: 18.4 µM [activator, partial curve, poor fit]",
COc1ccc(C23CC4CC(CC(C4)C2)C3)cc1C(=O)NCCN(C)C,"inconclusive: 32.6 µM [activator, partial curve, poor fit]",

# More entries

Compound,Potency,re-replication activation
Cc1cc(C)c2c(=O)n(CC(=O)Nc3cccc(F)c3)sc2n1,"inconclusive: 20.6 µM [activator, single point]",
COc1ccc(OC)c(Nc2nc(-c3sc(N)nc3C)cs2)c1,inactive,
CC(=O)Nc1ccccc1OCCOc1ccc(Br)cc1,"inconclusive: 1.84 µM [activator, partial curve, poor fit]",
CCC1CCc2sc(C(=O)NC3CCN(Cc4ccccc4)CC3)cc2C1 (stereo not given),"inconclusive: 16.4 µM [activator, single point]",
Cc1ccc(-c2csc(NNC(=O)c3ccccc3)n2)cc1,"inconclusive: 23.1 µM [activator, single point]",
O=C(Nc1cccc(NC(=O)c2cccc(F)c2)n1)c1cccc(F)c1,inactive,
CCOc1ncccc1C(=O)OCC(=O)Nc1ccc(-c2nc3ccc(C)cc3s2)cc1,"inconclusive: 0.184 µM [activator, full curve, poor fit]",
CC1=CC(=C(C#N)C#N)C=C(C)N1Cc1ccc(Cl)cc1,"inconclusive: 29.1 µM [activator, single point]",
COc1ccc(C(C(=O)NC(C)(C)C)N(C(=O)CCC(=O)Nc2cc(C)on2)c2cccc(C)c2C)cc1 (stereo not given),inactive,
COc1ccc(C(C(=O)NC2CCCCC2)N(C(=O)Cc2c[nH]c3ccccc23)c2ccccc2)cc1OC (stereo not given),"inconclusive: 0.0731 µM [activator, full curve, poor fit]",
O=S(=O)(c1ccccc1)c1cnc(-c2cccnc2)nc1-c1ccc(Cl)cc1Cl,inactive,
COc1cc(NC(=O)[C@@H](NC(=O)c2ccco2)C(C)C)c(OC)cc1NC(=O)c1ccccc1,inactive,
O=C(NCCc1ccc2c(c1)OCCO2)c1cc(S(=O)(=O)N2CCCC2)ccc1Br,inactive,
COc1cc(/C=C2\C=CC(=O)O2)cc(OC)c1,inactive,
CCCCn1c(N)c(N(CC(C)C)C(=O)c2ccc(N(C)S(=O)(=O)c3ccc(C)cc3)cc2)c(=O)[nH]c1=O,"inconclusive: 0.13 µM [activator, full curve, poor fit]",
O=C(CCc1nc2sc3c(c2c(=O)[nH]1)CCCC3)NCCc1ccc(F)cc1,inactive,
CCc1nc2c(cnn2-c2ccc(Cl)cc2)c(=O)n1-c1ccc(OC)cc1,"inconclusive: 31.6 µM [activator, single point]",
COc1ccc(Nc2nc(OC)nc(OC)n2)cc1,inactive,
COCCn1cnc2c1c(=O)[nH]c(=O)n2Cc1ccccc1,"inconclusive: 5.17 µM [activator, single point]",
CC(NC(=O)c1ccccc1F)C1CC1 (stereo not given),inactive,
O=C(/C=C/c1ccc2ccccc2n1)N1CCN(S(=O)(=O)c2ccc(F)cc2)CC1,"inconclusive: 29.1 µM [activator, partial curve, poor fit]",
